From ChEMBL document CHEMBL3988442, “University of Dundee, Small-Polar-MMV Screening Library” (2021).

T. brucei: 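Whole-parasite assay of Trypanosoma brucei over 72 hours; the read-out is not stated. Concentration: 30 µM. Direction is inferred from retests: higher values go with stronger inhibition. Values scatter widely below zero; nearly all retest evidence comes from the higher of the two concentrations used. Size under these conditions: about 64,000 compounds, about 940 of them at 50% or above in at least one test.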
Toxoplasma: 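Assay of Toxoplasma gondii numbers, read through their beta-galactosidase reporter with a colour substrate. Concentration: 10 µM. The record gives no direction; the compounds picked for IC50 retests had high values, so higher reads as fewer parasites. About 67,000 compounds were tested under these conditions; 0.38% (about 260) showed 50% or more at least once.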

Results are given as percent effect. The record does not define 0% and 100%; most values in the screen are far below 50% and negative numbers occur (in some assays of this library far below -100). This is an unselected part of the compounds tested. A dash means the value is not listed here; it may have been measured.

compound | T. brucei | Toxoplasma
Cc1nc(C2CCCN2C(=O)c2cc3c(s2)CCCC3)no1 (centres undefined) | -30.36 | -18.21
CCCc1cc(NC2CCc3nc(C)nn3C2)n2ncnc2n1 (centres undefined) | -21.48 | -0.3239
COc1ccc2c(c1)c(-c1nc(N(C)C)ncc1CN)cn2C | 100.6 | 0.6911
Cn1nc(CNC(=O)c2nc3ccccc3s2)c2c1CCOC2 | 48.61 | -2.328
COCCN(Cc1coc(-c2ccc(OC)cc2)n1)C1CC1 | -0.9613 | -16.78
COc1ccc(CN2CCC(c3nnc(-c4scnc4C)o3)CC2)cc1 | 3.062 | -4.625
CCN(Cc1ccccc1)S(=O)(=O)C1CCS(=O)(=O)CC1 | -20.71 | 3.701
O=C(O)CC(O)(CC(=O)O)C(=O)O.[H][C@@]12CC[C@@](O)(c3ccc(C)cn3)[C@]1([H])CN(Cc1cnc(OC)nc1)C2 | 7.08 | 19.06
O=C(Cn1cc(C(=O)O)cn1)Nc1c(Cl)cccc1Cl | -1.411 | 5.051
O=C(O)C(F)(F)F.[H][C@@]12OCCC[C@]1([H])N(S(=O)(=O)CCC)C[C@@H]2N(C)Cc1ccco1 | -21.32 | 5.262
Cc1csc(CNC(=O)NCC(O)c2ccc(F)cc2F)n1 (centres undefined) | -76.87 | 1.896
COc1c(CNCc2cccc(Cn3ccnc3C)c2)c(C)nn1C.Cl | -2.374 | -24.93
Cc1ccc(S(N)(=O)=O)cc1C(=O)NC1CCCN(C)C1 (centres undefined) | -21.29 | 19.83
Cc1ccc(S(=O)(=O)N2CCOCC2C#N)c(F)c1 (centres undefined) | -31.23 | 8.77
CC(C)OCCC(=O)Nc1ncn(CC(=O)N2CCCCCC2)n1 | -45.33 | 8.846
CCc1n[nH]c(C2CN(C(=O)c3cc4c(s3)CCC4)CCO2)n1 (centres undefined) | - | 14.8
CCO[C@H]1C[C@@H](O)C12CCN(C(=O)CC(F)(F)F)CC2 | 2.731 | -1.915
N#Cc1cccc(Cl)c1NCCc1n[nH]c(=O)[nH]1 | -20.55 | -40.41
Cc1cc(C)c2nc(CN3CCC(CN)CC3)cc(O)c2c1 | -32.99 | -3.523
O=C(O)C(F)(F)F.[H][C@@]12CCN(c3nnc(C)s3)C[C@@]1([H])O[C@@H](C(=O)N(C)C)C2 | -113.7 | -4.497
O=C(O)C(F)(F)F.O=C(O)C(F)(F)F.[H][C@@]12COC[C@]1(CN(C)C)CN(C(=O)c1cccnc1OC)C2 | -69.78 | -2.5
O=C(NCC1Cn2nnc(-c3ccsc3)c2CO1)c1ccc[nH]1 (centres undefined) | 9.241 | 5.41
Cc1ccc(C(=O)NCCNC(=O)c2cncnc2C(C)C)cc1F | -13.31 | 0.9489
CCC(CO)(CO)NC(=O)C1CCC(=O)N(CCc2ccccc2)C1 (centres undefined) | -23.54 | 1.373
Cc1nn(-c2ncccn2)c2c1C(c1cnn(C)c1)SCC(=O)N2 (centres undefined) | -35.82 | 2.51
NC(=O)[C@@H]1CCCN1C(=O)c1cn(C/C=C/c2ccccc2)nn1 | 2.736 | -8.927
CS(=O)(=O)N1CC(c2ncn3ccccc23)C1 | 15.85 | -8.649
CC(C)CC(=O)N1CCCCC(NC(=O)CCc2cccnc2)C1 (centres undefined) | -19.4 | -10.8
O=C(NCc1ccccn1)c1cnc(C2CCCN2)cn1 (centres undefined) | - | 5.297
CC(C)N1CC[C@H](c2nnc(Cc3c[nH]c4ccccc34)o2)C1 | 2.201 | 7.462
CC(C)COCCC(=O)NCCC(=O)N1CCN(c2ccccn2)CC1 | -18.75 | -49.23
CCSC1(CNc2ncc(Br)cn2)CCOCC1 | -30.04 | 8.672
[H][C@@]12CCN(C3CCOCC3)[C@]1([H])CC[C@@H](c1nnc(C)o1)O2 | -1.349 | 9.826
CNC(=O)c1cc(C2CCCNC2)n[nH]1.Cl (centres undefined) | - | 6.589
O=C(NCC1CC1)c1nc(COc2ccc3c(c2)OCO3)no1 | 9.746 | -6.455
O=C(O)C(F)(F)F.O=C(O)C(F)(F)F.[H][C@@]12CN(Cc3ccc(C)s3)C[C@@]1([H])N(Cc1ccncc1)C(=O)CO2 | 13.23 | 4.578
Cc1ncc(CN2CCc3c(nc(-c4ccccn4)[nH]c3=O)C2)n1C | 9.769 | 2.919
CN(C)c1ncc2c(n1)N(C)CCN(CC1CC1)C2=O | 0.04484 | -3.205
Cn1ccnc1CN1C[C@@H](CN2CCCCC2)[C@@H](CO)C1 | -13.86 | 3.143
CCN1CCOCC12CCN(c1ccc(C#N)cc1)CC2.O=C(O)C(F)(F)F | -48.12 | -4.261
Cc1occc1C(=O)NCC(=O)NCCOc1cccc(Cl)c1 | -10.08 | 3.942
Cc1cc(=O)n(CC(=O)NCC2CCCO2)c(-c2cccc(Cl)c2)n1 (centres undefined) | -19.91 | 12.01
Cc1nc(C2CCCN2CC(=O)N2CCCc3ccccc32)no1 (centres undefined) | -4.409 | -4.093
O=S(=O)(Nc1cnc(N2CCOCC2)nc1)c1cccc(F)c1 | -26.72 | -20.47
COc1cccc(COCC(=O)N2CCCC(n3cncn3)C2)c1 (centres undefined) | -21.58 | 5.194
O=C(CCc1c(F)cccc1F)N1CCCCC1Cn1cccn1 (centres undefined) | - | 4.13
Cn1cc(N2CCC(NC(=O)c3c(F)cccc3Cl)C2=O)cn1 (centres undefined) | -21.75 | -0.4058
COc1ccccc1Cc1cncc(N2CC(C(=O)O)C2)n1.Cl | -5.244 | 9.571
Cc1nn(CCNS(=O)(=O)c2ccccc2)c(C)c1Cl | -3.723 | -9.825
CCCN1CCCn2nc(CNS(=O)(=O)c3cccc(C#N)c3)cc2C1 | 36.74 | -1.164
Cc1ccc(-c2noc(CN3CCC(c4ccn[nH]4)CC3)n2)cc1 | -24.28 | 13.65
Cc1ccc(N2Cc3cnn(Cc4ccc(F)cc4)c3C2)nn1 | 15.1 | 4.357
CN(C)S(=O)(=O)N1CCC2(CC1)CC(OCC1CC1)CO2 (centres undefined) | -7.34 | 2.044
CC(C)(O)CSCCNC(=O)c1ccc(F)cc1Cl | -16.75 | 9.574
O=C(O)C(F)(F)F.[H][C@@]12CCN(Cc3ccco3)[C@]1([H])CC[C@H](COC)O2 | -58.69 | 28.64
O=C(O)C(F)(F)F.O=C(O)C(F)(F)F.[H][C@@]12OCCN(Cc3nccs3)[C@@]1([H])CC[C@@H]2OCc1ccccn1 | -16.84 | 3.549
COc1ccc(C(C)N(C)Cc2c(C(C)C)[nH]c3ncccc23)cc1 (centres undefined) | -2.647 | -0.3537
COCCN(C)C[C@@H]1CN(C(=O)c2ccc(C)c(Cl)c2)C[C@@H]1CO | 3.561 | 14.9
Cc1nn(C)c(N(C)C)c1CNC1CCc2c(Cl)cccc21.Cl (centres undefined) | 17.67 | -14.99
CC(C)CCC(C)NC(=O)CN1C=Nc2ccccc2S1(=O)=O (centres undefined) | 20.13 | 0.1806
CC[C@H](C)Nc1ncc(-c2cccc(NC(=O)CNC)c2)cn1 | 32.52 | 32.6
CN(C)CC(=O)N1Cc2ncn(C)c2C(COCC2CCOCC2)C1 (centres undefined) | -3.399 | -5.162
Cc1nnc(CN(Cc2ccccc2Br)C2CC2)o1 | -5.711 | 4.661
CCOc1c(CNCCCn2ccnc2)cc(Cl)cc1OC.Cl.Cl | -7.696 | 16.26
Cc1cccc(C(=O)N2CCn3cc(CNC(=O)CC4CC4)nc3C2)n1 | -0.9372 | -18.36
O=C(O)C(F)(F)F.O=C1COC2(CCN(Cc3ccc(F)cc3)CC2)CN1 | 12.33 | -7.77
CCN(C)C(=O)c1ncn2c(C3CCN(S(C)(=O)=O)CC3)ccnc12 | -63.68 | -2.181
N#Cc1ccc(N2CCN(C(=O)c3cc(C4CC4)[nH]n3)CC2)c(F)c1 | 39.02 | 8.078
CN(CC(=O)N1CCC(COc2ccccc2)CC1)c1cnccn1 | - | 8.342
Cc1nnc(NC(=O)NCc2ccc(N3CCNC(=O)C3)cc2)s1 | -37.22 | 12.3
C[C@@H]1CN(S(C)(=O)=O)C[C@]12CCN(Cc1cccnc1)C2=O.O=C(O)C(F)(F)F | -31.63 | 13.88
CCc1ccccc1NC(=O)C1CN(C(C)=O)C1 | -53.85 | 1.268
N#CCCN(C(=O)CN1CCCC1c1ccccc1Cl)c1ccccc1 (centres undefined) | -21.6 | 0.1608